We go through one molecule from patent US20190112365A1.

Amino acid sequences for entries named in this document (tags omitted). A change or cut given only in a name is not applied to a line headed by its entry.
UniProt P10636: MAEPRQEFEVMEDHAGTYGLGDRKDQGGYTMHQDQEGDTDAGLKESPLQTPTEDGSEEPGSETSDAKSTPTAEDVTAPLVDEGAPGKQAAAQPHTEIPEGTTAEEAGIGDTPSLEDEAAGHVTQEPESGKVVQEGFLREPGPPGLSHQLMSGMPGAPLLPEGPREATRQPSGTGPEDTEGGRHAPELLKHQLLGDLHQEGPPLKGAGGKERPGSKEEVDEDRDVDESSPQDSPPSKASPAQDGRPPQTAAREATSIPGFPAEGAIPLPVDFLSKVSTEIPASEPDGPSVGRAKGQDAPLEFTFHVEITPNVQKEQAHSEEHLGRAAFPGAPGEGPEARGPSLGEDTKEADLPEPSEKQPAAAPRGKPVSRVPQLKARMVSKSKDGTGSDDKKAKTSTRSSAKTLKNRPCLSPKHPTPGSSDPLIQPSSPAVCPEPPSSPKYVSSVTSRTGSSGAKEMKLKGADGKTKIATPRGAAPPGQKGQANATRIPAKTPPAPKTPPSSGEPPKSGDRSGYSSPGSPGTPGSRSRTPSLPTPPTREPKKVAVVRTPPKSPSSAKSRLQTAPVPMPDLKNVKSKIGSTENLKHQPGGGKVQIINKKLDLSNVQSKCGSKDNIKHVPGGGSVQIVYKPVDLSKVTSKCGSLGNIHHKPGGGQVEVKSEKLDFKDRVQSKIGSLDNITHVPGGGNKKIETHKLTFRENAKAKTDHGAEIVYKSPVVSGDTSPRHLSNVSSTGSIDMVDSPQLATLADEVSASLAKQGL

Results are given in words; binding and its absence hold for the method and conditions named. Some results given as binding are weak or reduced against the parent protein; the word gives no strength.

In the test the target is Human Tau 2N4R, wild type, recombinant full length (human) (UniProt P10636). Nature of the test: direct ELISA on coated 2N4R Tau.

B1: 7G6-HCzu11-LCzu12 (antibody, human IgG1, kappa, V domains shown)
VH: EVQLLESGGGLVQPGGSLRLSCAASGYTFTTYWITWVRQAPGKGLEWVSDIYPGSSICNYNEKFKSRFTISRDNSKNTLYLQMNSLRAEDTAVYYCAKEDGYDAWFAYWGQGTLVTVSS
VL: DVQMTQSPSSLSASVGDRVTITCRSSQSILHSNGNTYLEWYQQKPGKAPKLLICKVSNRFSGVPSRFSGSGSGTDFTLTISSLQPEDFATYYCFQGSHVPFTFGQGTKLEIKR
For the molecule B1, the binding entry is recorded as “binds”.
